Consider four molecules from PMC11671999.

Chains of the proteins cited; added tags and fusions are not shown.
UniProt Q9UM07: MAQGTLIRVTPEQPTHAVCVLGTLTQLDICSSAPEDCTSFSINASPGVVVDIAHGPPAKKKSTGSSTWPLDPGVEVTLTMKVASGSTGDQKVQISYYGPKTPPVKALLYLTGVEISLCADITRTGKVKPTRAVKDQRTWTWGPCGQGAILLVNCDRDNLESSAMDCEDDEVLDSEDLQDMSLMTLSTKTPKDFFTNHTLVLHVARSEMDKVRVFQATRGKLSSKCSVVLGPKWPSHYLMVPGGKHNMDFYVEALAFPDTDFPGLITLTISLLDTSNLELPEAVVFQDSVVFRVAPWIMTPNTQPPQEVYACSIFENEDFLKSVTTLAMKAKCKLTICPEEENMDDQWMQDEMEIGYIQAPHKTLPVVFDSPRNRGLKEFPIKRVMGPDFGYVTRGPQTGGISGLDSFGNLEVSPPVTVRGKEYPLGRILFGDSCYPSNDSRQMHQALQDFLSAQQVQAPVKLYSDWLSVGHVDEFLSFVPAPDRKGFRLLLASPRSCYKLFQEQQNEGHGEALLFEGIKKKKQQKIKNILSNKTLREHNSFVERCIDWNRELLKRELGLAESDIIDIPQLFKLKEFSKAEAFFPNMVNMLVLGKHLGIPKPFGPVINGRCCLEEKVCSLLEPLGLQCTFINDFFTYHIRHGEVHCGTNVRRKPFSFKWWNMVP
UniProt P13645: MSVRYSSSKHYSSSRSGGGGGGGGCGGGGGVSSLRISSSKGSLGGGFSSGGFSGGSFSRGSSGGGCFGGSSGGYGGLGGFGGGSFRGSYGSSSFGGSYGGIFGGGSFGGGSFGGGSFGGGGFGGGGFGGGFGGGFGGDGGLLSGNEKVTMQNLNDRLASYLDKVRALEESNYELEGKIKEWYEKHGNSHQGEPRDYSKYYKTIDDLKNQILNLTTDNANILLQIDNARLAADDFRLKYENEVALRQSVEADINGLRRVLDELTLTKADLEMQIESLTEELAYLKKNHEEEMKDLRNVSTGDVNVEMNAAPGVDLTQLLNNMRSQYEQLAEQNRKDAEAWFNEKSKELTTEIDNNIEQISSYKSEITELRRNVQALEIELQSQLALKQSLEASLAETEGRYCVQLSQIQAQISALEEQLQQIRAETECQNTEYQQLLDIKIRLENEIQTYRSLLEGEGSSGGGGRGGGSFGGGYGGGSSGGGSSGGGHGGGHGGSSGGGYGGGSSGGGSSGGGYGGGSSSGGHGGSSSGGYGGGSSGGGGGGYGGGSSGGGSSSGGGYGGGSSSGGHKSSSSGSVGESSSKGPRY
UniProt P04264: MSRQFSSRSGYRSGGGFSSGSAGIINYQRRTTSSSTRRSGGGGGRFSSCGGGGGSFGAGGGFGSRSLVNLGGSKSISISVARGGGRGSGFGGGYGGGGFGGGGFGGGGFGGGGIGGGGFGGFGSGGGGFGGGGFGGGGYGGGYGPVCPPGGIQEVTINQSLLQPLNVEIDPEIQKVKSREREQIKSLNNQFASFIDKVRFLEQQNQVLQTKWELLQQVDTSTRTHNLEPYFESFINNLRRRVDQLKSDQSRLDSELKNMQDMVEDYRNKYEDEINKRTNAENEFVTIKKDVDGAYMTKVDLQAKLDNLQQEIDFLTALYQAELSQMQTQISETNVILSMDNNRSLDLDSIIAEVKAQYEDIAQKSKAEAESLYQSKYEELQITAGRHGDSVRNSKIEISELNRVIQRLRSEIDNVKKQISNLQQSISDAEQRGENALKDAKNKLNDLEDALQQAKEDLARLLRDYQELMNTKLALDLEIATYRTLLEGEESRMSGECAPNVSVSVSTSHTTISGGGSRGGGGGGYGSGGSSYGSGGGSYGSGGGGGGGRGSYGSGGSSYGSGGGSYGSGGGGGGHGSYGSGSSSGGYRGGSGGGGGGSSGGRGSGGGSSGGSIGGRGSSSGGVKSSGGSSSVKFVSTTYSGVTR
UniProt P35908: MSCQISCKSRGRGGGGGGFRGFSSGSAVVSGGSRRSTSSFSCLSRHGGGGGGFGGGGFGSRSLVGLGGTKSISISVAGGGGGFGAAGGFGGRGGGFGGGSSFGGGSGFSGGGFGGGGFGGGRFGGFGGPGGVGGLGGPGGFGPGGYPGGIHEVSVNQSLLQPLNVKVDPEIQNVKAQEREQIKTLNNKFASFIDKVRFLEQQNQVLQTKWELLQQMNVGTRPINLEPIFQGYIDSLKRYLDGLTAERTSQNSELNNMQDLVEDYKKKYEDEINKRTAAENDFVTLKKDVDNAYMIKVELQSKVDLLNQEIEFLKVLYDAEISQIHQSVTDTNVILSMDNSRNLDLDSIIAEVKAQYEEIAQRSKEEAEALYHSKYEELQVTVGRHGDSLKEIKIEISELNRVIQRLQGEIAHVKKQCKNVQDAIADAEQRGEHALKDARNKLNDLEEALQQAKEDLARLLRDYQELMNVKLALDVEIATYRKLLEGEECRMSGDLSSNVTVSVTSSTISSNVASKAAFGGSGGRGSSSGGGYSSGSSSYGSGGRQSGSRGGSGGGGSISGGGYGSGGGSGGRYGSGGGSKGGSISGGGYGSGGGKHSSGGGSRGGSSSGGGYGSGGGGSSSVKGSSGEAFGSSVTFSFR

B1: Keratin 9 (K9) (protein, UniProt P35527 1-623)
chain: MSCRQFSSSYLSRSGGGGGGGLGSGGSIRSSYSRFSSSGGGGGGGRFSSSSGYGGGSSRVCGRGGGGSFGYSYGGGSGGGFSASSLGGGFGGGSRGFGGASGGGYSSSGGFGGGFGGGSGGGFGGGYGSGFGGFGGFGGGAGGGDGGILTANEKSTMQELNSRLASYLDKVQALEEANNDLENKIQDWYDKKGPAAIQKNYSPYYNTIDDLKDQIVDLTVGNNKTLLDIDNTRMTLDDFRIKFEMEQNLRQGVDADINGLRQVLDNLTMEKSDLEMQYETLQEELMALKKNHKEEMSQLTGQNSGDVNVEINVAPGKDLTKTLNDMRQEYEQLIAKNRKDIENQYETQITQIEHEVSSSGQEVQSSAKEVTQLRHGVQELEIELQSQLSKKAALEKSLEDTKNRYCGQLQMIQEQISNLEAQITDVRQEIECQNQEYSLLLSIKMRLEKEIETYHNLLEGGQEDFESSGAGKIGLGGRGGSGGSYGRGSRGGSGGSYGGGGSGGGYGGGSGSRGGSGGSYGGGSGSGGGSGGGYGGGSGGGHSGGSGGGHSGGSGGNYGGGSGSGGGSGGGYGGGSGSRGGSGGSHGGGSGFGGESGGSYGGGEEASGSGGGYGGGSGKSSHS

No constants are given. Whether binding was seen depends on the method and setting. Binding seen in cells or lysates may run through a third protein. Some results given as binding are weak or reduced against the parent protein; the word gives no strength.

The assay addresses protein arginine deiminase type 4 (PAD4) (human (endogenous in GES-1)) (UniProt Q9UM07). As to the kind of experiment: co-IP; immunoprecipitation and blot of PAD4 and keratins; details in the supplemental methods.
Consider “Keratin 10 (K10) (from UniProt P13645 1-584)”, for which the binding entry is on record as “no binding”.
For “Keratin 1 (K1) (from UniProt P04264 1-644)”, the binding entry is “binds”.
In the case of “Keratin 2 (K2) (from UniProt P35908 1-639)”, the binding entry is “no binding”.
Take B1: the binding entry was “no binding”.
